What all share (assay): split reporter; Bimolecular luciferase complementation (BiLC) in N. benthamiana leaves after Agrobacterium infiltration; nLUC and cLUC fusions; luciferin 1 mM, LUC activity monitored after 2 days
The target in test [1] is T1, Tetraspanin 8 (TET8), full length, fused to cLUC (Arabidopsis thaliana) (UniProt Q8S8Q6).
T1 sequence: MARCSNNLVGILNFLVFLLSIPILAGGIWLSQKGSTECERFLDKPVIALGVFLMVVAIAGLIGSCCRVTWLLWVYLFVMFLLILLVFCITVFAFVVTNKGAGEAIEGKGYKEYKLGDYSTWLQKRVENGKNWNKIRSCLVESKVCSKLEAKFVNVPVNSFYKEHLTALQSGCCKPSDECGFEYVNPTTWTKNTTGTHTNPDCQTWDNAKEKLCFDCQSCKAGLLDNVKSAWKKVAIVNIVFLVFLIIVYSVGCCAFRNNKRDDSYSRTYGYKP

Test [2] has as its target T2, Choline transporter-like 1 (CTL1), full length, fused to nLUC (Arabidopsis thaliana) (UniProt Q94AN2).
T2 sequence: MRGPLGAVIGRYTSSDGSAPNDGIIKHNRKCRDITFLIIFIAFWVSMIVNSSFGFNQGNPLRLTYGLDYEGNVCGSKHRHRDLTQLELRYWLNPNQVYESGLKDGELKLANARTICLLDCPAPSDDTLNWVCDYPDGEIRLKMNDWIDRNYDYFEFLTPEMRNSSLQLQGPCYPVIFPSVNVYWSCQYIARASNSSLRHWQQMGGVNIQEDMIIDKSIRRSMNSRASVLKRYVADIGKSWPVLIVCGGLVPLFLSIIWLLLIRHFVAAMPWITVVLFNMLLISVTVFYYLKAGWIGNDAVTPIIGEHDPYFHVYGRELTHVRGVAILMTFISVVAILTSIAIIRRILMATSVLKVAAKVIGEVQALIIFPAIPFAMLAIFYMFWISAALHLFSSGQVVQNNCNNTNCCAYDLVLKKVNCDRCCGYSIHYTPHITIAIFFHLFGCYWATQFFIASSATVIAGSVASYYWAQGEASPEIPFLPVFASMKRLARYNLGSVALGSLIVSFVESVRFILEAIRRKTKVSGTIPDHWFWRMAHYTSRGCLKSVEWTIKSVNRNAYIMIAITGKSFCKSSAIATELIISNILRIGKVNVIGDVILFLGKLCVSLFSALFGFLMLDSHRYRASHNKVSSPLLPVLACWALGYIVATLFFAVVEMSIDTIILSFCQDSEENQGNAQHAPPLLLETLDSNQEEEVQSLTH

For test [3], the target named is T3, Patellin 2 (PATL2), full length, fused to nLUC (Arabidopsis thaliana) (UniProt Q56ZI2).
T3 sequence: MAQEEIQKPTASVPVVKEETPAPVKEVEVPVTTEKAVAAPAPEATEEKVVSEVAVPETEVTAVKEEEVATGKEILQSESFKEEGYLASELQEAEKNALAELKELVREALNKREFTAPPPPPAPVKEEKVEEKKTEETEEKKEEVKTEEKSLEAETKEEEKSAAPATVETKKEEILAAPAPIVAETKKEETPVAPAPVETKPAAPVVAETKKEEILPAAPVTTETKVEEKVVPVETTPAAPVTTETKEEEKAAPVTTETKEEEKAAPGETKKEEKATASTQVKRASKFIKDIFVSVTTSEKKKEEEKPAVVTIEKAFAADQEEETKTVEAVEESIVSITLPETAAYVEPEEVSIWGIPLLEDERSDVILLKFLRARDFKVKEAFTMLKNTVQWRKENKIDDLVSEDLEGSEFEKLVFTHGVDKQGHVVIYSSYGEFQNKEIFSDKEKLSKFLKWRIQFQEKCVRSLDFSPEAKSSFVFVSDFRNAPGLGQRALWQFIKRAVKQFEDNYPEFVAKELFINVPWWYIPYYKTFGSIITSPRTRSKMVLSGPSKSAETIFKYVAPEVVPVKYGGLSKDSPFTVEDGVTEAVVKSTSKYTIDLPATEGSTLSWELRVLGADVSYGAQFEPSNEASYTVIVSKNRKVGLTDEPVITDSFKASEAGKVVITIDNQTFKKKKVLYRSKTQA

Results are given in words; binding and its absence hold for the method and conditions named. In cells and extracts the contact can be indirect. A result given as binding can be weak or reduced; the word gives no strength. Where a sequence is shown, tags or fusion partners need not be part of it.

In the case of “HARP1 fused to the amino-terminal half of luciferase (nLUC) (Helicoverpa armigera)”, in test [1], the binding result is “binds”. “HARP1 fused to the carboxyl-terminal half of luciferase (cLUC) (Helicoverpa armigera)”: the binding entry in test [2] and in test [3] was “binds” in each case.

(Values after article PMC10582130.)
